Results reported in patent publication US9907853B2, “Approach to treatment of hyperglycemia using a nanoparticle encapsulated peptide” (University of Rochester, priority 2016, dated 2018).
At least one peptide structure holds a part that was inferred or is arguable (an end, a ring closure or a residue). Residues, ends and D or L forms follow the SMILES beside them. *: point of attachment. Myristoyl = CCCCCCCCCCCCCC(=O)*

Amino acid sequences for entries named in this document (tags omitted). Residues count along the entry.
UniProt P06213, 763-1382 limits assumed: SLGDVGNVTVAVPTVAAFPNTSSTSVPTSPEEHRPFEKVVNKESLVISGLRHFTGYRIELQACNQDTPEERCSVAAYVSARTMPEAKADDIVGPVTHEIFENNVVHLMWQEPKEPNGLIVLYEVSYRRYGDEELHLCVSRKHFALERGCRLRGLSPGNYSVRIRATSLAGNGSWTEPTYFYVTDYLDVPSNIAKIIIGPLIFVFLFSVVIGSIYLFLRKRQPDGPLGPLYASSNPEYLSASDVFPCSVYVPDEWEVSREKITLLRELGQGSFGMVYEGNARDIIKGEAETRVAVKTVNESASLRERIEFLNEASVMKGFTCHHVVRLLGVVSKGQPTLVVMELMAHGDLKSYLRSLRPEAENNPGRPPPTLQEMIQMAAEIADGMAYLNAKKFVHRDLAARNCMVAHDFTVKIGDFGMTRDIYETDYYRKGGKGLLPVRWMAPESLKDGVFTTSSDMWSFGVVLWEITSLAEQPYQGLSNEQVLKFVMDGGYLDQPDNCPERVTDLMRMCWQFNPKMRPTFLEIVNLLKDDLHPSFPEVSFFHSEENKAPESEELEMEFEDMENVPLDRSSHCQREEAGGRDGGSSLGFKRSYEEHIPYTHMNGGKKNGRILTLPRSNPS
UniProt P06213, 1015-1290 limits assumed: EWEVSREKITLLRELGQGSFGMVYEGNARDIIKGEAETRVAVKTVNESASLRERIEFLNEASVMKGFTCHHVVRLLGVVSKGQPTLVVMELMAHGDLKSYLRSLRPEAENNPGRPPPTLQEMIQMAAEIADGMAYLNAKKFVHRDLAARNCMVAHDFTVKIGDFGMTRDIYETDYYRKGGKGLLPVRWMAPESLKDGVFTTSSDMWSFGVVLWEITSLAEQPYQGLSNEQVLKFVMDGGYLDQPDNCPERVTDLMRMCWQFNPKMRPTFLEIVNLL
UniProt P06213, 28-758 partner limits assumed: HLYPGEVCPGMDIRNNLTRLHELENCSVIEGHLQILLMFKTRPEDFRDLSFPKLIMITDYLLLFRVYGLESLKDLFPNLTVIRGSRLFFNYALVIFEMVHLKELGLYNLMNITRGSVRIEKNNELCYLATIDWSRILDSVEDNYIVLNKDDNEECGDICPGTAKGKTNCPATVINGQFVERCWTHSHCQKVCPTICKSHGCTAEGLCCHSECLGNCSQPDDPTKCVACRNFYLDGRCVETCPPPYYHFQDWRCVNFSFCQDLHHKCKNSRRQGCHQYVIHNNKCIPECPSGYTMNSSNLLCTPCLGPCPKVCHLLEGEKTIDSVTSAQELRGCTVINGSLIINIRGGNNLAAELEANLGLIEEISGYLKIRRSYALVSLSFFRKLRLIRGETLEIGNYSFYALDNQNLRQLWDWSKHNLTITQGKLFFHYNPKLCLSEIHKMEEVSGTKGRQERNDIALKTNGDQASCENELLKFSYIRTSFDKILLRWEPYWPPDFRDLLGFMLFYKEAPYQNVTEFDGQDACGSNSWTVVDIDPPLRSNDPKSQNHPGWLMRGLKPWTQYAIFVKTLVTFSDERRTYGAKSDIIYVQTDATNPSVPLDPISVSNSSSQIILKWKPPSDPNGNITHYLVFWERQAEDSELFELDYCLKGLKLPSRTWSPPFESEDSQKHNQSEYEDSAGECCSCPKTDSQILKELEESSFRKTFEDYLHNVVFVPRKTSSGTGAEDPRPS

Assays:
[1] = test system: human skeletal muscle (HSKM) cells; assay: 3H-deoxyglucose uptake in human skeletal muscle cells; format: cell-based; settings: for stimulation of glucose uptake after 6 hours: 20 μM
Description: Insulin, when used, was added at the same time as 3H-deoxyglucose. * P<0.05, ** P<0.01. […] HSKM cells were starved overnight as in described in FIG. 2A. […] Glucose uptake was measured as in A. […] Treatment with peptide nanoparticles was for 1 h. Glucose uptake was measured as described in FIG. 2A. Cultures of HEK293 were maintained in DMEM with 10% FBS. Cells were starved overnight in medium with 0.1% FBS. When used, insulin was added to serum-starved cultures at 100 nM. Human skeletal muscle cells were maintained in 1:1 DMEM:F12 medium containing 15% FBS. […] Cells were washed 3 times with cold PBS and solubilized in 150 μl 50 mM NaOH. Radioactivity was measured and normalized to protein concentration. Assessments were made in triplicate and experiments were repeated three times.

[2] = molecular target: T1, IRK (insulin receptor β-subunit) (Homo sapiens, UniProt P06213); assay: IRK autophosphorylation in vitro ([32P]-ATP); format: biochemical; settings: 20 μM peptide
T1 construct: Insulin receptor β-subunit (IRK); purchased Enzo Life Sciences (Farmingdale, N.Y.)
Description: (§1) FIG. 4A depicts P2 stimulate IRK autophosphorylation in vitro. IRK was incubated in vitro with 20 μM of peptide P2 (KYCCSRK (SEQ ID NO: 2)), peptide a (KKRILHC (SEQ ID NO: 5)) or peptide b (KRNRYLSF (SEQ ID NO: 6)) and [^32P]-ATP. The [^32P] incorporation was quantified. FIG. 4B depicts P2 stimulate IRK kinase activity in vitro; identification of IRK inhibitory peptide. A similar assay was performed as in FIG. 4A, except that the IRK peptide substrate was included. FIG. 4C depicts P2 is both a substrate and activator of IRK kinase activity in vitro. Assays using sequence variant (P2Y-F; KFCCSRK (SEQ ID NO: 9)) of P2 were performed as in FIG. 4B. FIG. 4D depicts P2 stimulates IRK kinase activity in the cell; peptide “a” is an inhibitor. […] The activity as measured in four livers of P2 injected and four control mice is shown.
(§2) Purified IRK was assayed as previously (Lerner-Marmarosh et al., 2005, PNAS 102:7109-14), using 300 μM IRS-1 Y608 peptide substrate. IRK autophosphorylation was determined as described earlier (Gibbs et al., 2012, J Biol Chem 287:1066-79). hBVR-based peptides (20 μM) were added as activators or inhibitors. […] Incorporation of ^32P was determined by liquid scintillation counting. […] Immunoprecipitates bound to protein A/G-agarose were washed in lysis buffer, followed by IRK assay buffer, and kinase activity was measured as before (Lerner-Marmarosh et al., 2005, PNAS 102:7109-14). […]

[3] = molecular target: T1, IRK (insulin receptor β-subunit); assay: IRK kinase activity in vitro towards IRS peptide substrate; format: biochemical; settings: 20 μM peptide
Description: as §1, §2

[4] = test system: Akt; assay: Akt phosphorylation in HEK cells (Western blot, densitometry); format: cell-based; settings: 40 μM myristoylated peptide, 15 minutes
[5] = test system: Akt1; assay: Akt kinase activity immunoprecipitated from HEK cells, Crosstide substrate; format: cell-based; settings: 40 μM myristoylated peptide, compared to untreated or P2sc controls
[6] = test system: GSK3α; assay: GSK3α phosphorylation in HEK cells (Western blot); format: cell-based; settings: 40 μM myristoylated peptide 15 minutes or insulin 100 nM
Description: FIG. 6A depicts Phosphorylation of GSK3α in P2-stimulated cells. Lysates of cells treated as in FIG. 5A were analyzed by Western blot; the blot was probed sequentially with antibodies to phospho-GSK3α-S21 and GSK3α. The signals were quantified by densitometry. FIG. 6B depicts Phosphorylation of GSK3β in P2-stimulated cells. Identical samples to those in FIG. 6A were probed with anti-phospho-GSK3β-S9 antibody, followed by anti-GSK3β.
HEK cells were incubated in low glucose DMEM with 0.1% FBS, overnight. Cells were treated with 40 μM myristoylated peptide for a total of 15 min; insulin or IGF-1, if used, were included for the final 10 minutes. Cells were harvested, lysed in buffer with triton ×100, and whole cell lysates were analyzed for phosphorylated Akt (T^308, S^473) or GSK3 (α-S^21, β-S^9) species by Western blotting. Each blot was stripped and probed with anti-Akt1 or anti GSK3α or GSK3β antibody, as appropriate, to control for loading.

[7] = molecular target: T2, IRK (Homo sapiens, UniProt P06213); settings: cited from earlier work
[8] = test system: cells derived from liver (HepG2), kidney (HEK), pulmonary artery smooth muscle (PASM) and skeletal muscle myoblasts; settings: N-myristoylated L-amino acid peptide; cited from earlier work
[9] = molecular target: T2, IRK; assay: IRK kinase activity immunoprecipitated from peptide-treated HEK cells; format: cell-based; parameters: IRK was immunoprecipitated from cell lysates and assayed using the IRS peptide as substrate; endogenous in cells; host or cells: HEK293; settings: 40 μM myristoylated peptide, 15 minutes
Description: as §1, §2

CCCCCCCCCCCCCC(=O)N[C@@H](CCCCN)C(=O)N[C@@H](Cc1ccc(O)cc1)C(=O)N[C@@H](CS)C(=O)N[C@@H](CS)C(=O)N[C@@H](CO)C(=O)N[C@@H](CCCNC(=N)N)C(=O)N[C@@H](CCCCN)C(=O)O [P2, myr-KYCCSRK (SEQ ID NO: 2)] (Myristoyl-KYCCSRK-OH; N-terminus and C-terminus assumed)
stimulation of glucose uptake after 6 hours ([1]; listed as myr-P2): effectively lost by 6 hours
stimulation of glucose uptake after 6 hours ([1]; listed as myristoylated peptide): no significant change in glucose
glucose uptake ([1]; 2 hours treatment, 20 μM peptide (insulin added with 3H-deoxyglucose)): stimulated glucose uptake to about the same extent
IRK autophosphorylation ([32P] incorporation) [2]: enhances the activity of IRK
increase in IRK-dependent incorporation of [32P] into the peptide substrate vs IRK alone [3]: approximately four-fold
phosphorylation of Akt S473 [4]: enhanced phosphorylation
phosphorylation of Akt T308 [4]: enhanced phosphorylation
Akt kinase activity [5]: increased kinase activity
phosphorylation of GSK3α at S21 [6]: enhanced phosphorylation
IRK Vmax [7]: increase IRK Vmax
glucose uptake [8]: stimulates glucose uptake in several cell types
activation of IRK in the cell [9]: approximately 3 fold
